Measured values published in the supplement of paper PMC10849652.
Some of the results follow. Residues, ends and D or L forms follow the SMILES beside them. *: point of attachment. Cbz = O=C(OCc1ccccc1)*

Chains of the proteins cited; added tags and fusions are not shown. Lines headed by an entry give the natural chain unless they say otherwise; changes in a name come on top.
UniProt P15976: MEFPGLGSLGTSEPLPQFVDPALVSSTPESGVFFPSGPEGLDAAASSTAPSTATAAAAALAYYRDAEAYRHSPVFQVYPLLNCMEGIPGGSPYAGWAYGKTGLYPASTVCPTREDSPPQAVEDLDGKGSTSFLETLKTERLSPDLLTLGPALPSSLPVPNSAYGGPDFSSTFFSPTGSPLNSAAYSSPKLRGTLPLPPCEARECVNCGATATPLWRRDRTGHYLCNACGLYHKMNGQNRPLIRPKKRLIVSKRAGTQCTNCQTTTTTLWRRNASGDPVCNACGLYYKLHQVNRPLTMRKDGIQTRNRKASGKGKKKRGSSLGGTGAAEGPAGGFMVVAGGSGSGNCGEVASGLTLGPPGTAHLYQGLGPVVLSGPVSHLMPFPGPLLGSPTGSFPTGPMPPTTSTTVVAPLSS
UniProt P04066: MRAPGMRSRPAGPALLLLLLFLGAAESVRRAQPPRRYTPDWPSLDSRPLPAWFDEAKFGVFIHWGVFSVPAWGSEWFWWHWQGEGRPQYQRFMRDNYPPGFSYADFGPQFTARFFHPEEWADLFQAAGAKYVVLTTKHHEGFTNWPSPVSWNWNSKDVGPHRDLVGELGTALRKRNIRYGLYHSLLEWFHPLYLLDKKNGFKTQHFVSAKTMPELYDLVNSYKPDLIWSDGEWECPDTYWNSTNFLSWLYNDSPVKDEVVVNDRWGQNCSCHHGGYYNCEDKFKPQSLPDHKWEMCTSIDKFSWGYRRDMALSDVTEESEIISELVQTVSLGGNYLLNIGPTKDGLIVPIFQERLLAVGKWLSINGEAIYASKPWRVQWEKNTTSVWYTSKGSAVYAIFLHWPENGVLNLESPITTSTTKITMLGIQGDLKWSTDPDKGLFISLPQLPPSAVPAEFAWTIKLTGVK
UniProt Q8IWJ2: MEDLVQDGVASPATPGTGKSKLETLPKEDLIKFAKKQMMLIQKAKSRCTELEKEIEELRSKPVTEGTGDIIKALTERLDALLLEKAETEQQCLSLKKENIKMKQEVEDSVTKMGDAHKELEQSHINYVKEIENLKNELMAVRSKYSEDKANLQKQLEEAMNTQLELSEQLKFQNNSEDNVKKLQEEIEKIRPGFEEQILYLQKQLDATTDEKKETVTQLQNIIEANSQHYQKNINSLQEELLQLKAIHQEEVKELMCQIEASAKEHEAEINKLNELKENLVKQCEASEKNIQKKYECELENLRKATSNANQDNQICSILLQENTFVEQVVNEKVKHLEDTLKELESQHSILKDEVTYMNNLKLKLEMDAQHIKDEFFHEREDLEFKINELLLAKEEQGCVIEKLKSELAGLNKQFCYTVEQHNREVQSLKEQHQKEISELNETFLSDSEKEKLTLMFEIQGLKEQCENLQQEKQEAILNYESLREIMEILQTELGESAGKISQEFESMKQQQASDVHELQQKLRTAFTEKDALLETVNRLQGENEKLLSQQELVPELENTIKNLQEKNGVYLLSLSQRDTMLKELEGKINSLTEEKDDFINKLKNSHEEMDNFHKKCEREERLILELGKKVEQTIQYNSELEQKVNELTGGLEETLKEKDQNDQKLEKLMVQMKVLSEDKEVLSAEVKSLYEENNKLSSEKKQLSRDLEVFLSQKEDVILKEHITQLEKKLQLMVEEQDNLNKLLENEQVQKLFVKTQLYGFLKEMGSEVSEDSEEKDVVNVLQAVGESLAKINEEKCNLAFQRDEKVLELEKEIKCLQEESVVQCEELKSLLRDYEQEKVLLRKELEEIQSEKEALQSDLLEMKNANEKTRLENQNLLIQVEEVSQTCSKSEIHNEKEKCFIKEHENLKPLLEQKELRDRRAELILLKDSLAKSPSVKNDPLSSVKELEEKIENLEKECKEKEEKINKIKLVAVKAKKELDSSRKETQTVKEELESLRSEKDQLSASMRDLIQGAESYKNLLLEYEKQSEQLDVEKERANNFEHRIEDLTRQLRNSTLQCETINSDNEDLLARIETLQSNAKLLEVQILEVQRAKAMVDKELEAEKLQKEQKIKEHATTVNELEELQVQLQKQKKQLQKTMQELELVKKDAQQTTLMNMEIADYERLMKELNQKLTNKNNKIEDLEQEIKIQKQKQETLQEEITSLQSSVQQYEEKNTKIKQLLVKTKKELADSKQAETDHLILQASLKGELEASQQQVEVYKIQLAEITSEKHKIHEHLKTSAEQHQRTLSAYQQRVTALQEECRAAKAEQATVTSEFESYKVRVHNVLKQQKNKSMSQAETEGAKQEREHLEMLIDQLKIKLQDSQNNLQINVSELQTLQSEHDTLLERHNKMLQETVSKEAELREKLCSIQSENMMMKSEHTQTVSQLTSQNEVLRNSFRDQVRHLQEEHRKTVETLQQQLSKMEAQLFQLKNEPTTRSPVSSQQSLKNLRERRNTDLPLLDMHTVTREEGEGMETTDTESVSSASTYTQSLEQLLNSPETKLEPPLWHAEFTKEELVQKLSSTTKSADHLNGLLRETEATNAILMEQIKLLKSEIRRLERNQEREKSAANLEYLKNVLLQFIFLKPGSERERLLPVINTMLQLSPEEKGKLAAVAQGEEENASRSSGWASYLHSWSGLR
UniProt P60520, whole entry, looked up: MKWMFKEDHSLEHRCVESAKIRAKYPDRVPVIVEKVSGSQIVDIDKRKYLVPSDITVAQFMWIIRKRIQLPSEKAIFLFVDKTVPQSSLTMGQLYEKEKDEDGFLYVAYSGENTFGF
UniProt Q8IXK2: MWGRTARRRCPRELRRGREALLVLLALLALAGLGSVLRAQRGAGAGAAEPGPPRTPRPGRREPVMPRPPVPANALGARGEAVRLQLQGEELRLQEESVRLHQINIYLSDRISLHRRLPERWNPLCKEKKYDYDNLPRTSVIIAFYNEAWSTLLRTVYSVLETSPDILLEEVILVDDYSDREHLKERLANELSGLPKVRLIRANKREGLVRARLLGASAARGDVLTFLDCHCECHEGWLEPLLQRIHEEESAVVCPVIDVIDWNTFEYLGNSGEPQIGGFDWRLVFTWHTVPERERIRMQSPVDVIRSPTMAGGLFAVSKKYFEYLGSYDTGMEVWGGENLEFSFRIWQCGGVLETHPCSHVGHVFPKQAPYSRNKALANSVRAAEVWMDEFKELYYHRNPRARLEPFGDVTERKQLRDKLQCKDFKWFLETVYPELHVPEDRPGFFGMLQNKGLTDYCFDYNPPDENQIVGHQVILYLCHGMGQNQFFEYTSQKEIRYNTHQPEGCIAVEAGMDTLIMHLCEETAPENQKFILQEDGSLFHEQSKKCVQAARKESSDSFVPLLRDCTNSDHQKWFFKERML
UniProt Q8N9F7: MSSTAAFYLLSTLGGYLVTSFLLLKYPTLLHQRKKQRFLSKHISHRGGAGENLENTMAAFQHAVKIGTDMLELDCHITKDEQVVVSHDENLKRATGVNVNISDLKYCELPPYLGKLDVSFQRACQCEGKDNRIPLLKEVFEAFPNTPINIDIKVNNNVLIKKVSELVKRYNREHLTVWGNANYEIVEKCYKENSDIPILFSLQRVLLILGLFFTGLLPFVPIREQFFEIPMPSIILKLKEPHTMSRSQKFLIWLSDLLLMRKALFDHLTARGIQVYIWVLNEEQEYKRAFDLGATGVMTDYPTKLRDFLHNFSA
UniProt Q04446: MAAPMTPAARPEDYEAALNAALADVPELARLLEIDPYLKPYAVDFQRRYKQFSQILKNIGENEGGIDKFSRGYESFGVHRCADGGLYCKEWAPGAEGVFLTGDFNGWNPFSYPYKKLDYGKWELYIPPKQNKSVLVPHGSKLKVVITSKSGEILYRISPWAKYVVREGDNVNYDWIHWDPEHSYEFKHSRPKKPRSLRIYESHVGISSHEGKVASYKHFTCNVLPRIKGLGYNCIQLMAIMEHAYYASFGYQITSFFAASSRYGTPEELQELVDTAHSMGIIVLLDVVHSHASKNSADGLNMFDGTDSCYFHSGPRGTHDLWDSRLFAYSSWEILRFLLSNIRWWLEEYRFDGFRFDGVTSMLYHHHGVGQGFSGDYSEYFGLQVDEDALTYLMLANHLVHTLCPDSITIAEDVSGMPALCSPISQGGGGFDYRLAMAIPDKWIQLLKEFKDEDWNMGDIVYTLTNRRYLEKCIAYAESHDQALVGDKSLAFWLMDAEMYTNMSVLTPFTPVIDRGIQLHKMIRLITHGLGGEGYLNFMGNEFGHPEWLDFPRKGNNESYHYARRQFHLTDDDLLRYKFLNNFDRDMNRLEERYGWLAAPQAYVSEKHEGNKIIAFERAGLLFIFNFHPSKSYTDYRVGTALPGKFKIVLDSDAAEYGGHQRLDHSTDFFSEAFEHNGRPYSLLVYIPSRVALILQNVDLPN
UniProt Q92947: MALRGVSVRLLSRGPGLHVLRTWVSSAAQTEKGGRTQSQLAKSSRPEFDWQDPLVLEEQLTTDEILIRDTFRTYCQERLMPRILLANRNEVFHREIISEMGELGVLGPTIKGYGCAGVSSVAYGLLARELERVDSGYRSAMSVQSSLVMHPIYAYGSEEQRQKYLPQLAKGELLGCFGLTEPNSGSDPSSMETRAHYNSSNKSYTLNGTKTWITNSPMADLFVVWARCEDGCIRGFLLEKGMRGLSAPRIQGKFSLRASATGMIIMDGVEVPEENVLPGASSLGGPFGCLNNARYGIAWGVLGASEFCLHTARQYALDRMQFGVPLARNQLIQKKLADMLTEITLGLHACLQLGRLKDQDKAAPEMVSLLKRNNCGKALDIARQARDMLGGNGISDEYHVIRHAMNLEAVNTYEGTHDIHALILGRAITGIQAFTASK
UniProt Q8WXD5: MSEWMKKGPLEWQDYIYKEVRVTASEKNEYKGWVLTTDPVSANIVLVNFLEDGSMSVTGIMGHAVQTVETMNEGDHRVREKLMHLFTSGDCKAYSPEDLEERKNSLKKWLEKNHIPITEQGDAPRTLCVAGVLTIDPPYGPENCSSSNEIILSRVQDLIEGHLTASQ
UniProt Q9NZC3: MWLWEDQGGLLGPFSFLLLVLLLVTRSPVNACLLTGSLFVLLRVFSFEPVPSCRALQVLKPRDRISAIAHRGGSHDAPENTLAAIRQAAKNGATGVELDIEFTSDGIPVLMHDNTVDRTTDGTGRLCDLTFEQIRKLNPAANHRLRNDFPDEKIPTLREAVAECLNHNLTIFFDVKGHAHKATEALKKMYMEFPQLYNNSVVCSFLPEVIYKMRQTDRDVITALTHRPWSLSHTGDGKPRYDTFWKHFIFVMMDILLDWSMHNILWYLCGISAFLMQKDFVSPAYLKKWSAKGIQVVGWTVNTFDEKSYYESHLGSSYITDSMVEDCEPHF
UniProt P48506: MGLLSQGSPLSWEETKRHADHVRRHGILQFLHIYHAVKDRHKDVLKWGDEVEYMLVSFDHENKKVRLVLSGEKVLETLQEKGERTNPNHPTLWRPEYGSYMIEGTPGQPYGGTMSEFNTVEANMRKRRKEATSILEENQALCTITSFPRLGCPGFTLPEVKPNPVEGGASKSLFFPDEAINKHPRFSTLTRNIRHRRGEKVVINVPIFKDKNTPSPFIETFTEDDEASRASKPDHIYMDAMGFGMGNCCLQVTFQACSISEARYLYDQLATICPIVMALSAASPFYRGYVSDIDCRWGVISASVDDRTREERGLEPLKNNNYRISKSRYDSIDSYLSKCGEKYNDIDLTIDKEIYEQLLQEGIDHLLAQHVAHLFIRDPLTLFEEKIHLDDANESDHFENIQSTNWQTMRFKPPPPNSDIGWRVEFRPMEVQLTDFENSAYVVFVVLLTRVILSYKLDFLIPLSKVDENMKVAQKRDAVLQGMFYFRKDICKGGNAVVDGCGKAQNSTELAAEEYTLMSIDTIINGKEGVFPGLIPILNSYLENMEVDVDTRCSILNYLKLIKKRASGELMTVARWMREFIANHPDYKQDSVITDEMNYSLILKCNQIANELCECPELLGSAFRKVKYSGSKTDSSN
UniProt P85037: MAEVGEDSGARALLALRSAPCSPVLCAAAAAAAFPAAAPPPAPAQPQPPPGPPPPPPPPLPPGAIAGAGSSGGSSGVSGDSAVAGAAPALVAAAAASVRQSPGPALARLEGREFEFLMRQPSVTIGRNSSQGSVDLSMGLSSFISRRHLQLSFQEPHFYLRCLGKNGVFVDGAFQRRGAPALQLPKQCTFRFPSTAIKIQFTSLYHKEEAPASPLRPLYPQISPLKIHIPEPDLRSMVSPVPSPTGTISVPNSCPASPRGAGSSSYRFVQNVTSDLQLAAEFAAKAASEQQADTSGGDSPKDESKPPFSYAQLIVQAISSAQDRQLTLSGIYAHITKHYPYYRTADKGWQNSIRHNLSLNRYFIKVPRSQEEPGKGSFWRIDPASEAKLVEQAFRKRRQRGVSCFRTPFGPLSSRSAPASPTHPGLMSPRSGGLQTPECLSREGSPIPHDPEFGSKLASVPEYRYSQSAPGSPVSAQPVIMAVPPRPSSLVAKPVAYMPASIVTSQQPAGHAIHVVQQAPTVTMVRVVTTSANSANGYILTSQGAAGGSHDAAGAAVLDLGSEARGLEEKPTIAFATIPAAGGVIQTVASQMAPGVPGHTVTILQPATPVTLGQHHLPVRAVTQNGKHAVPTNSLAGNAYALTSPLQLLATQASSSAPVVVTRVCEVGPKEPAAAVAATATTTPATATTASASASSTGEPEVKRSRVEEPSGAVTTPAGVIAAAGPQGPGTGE

Experiments:
Assay in all cases: log2 fold change, soluble protein after heating vs DMSO (PISA); higher = thermal stabilisation; K562 cells, 10 uM, 30 min; active = over 0.2 and 3.5 SD of the protein, either way, in both replicates (recomputed)
erlotinib = compound: C#Cc1cccc(Nc2ncnc3cc(OCCOC)c(OCCOC)cc23)c1 [erlotinib]
Procedure, shortened: (§1)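 Aliquots of K562 cells (2×10^6 cells/mL) treated with 10 μM compound for 30 min were heated for 3 min over 48°C-58°C. After pooling and extraction in PBS with 0.5% NP-40 at 4°C, soluble protein from a 21,000xg, 90 min spin was quantified by TMTpro 16plex LC-MS/MS with channel sums equalised. Thermal stability is expressed against control samples, from duplicates, as a log2 fold change.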

[1] = compound: C/C(=N\NC(=O)C1=CC(=CC=C1)S(=O)(=O)N2CCOCC2)/C3=C(C=CC(=C3)Cl)O
Procedure, shortened: as §1

[2] = compound: C1=CC(=C(C=C1Cl)C2=NC3=NC=CN=C3C(=N2)NC4=CC=NC=C4)F
Procedure, shortened: as §1

[3] = compound: C1=CC(=CC=C1C2=NC3=C(N2)C=C(C=C3)C(=O)N)OC4=CC=C(C=C4)Cl
Procedure, shortened: as §1

[4] = compound: C1=CC2=C(C=CC(=C2)/C=C\3/C(=O)NC(=NCC4=CC=CS4)S3)N=C1
Procedure, shortened: as §1

[5] = compound: C1=CC2=NC=CN=C2C=C1/C=C/3\C(=O)NC(=O)S3
Procedure, shortened: as §1

[6] = compound: C1=CC=C(C=C1)C2=NC(=C(N2)C3=CC=NC=C3)C4=CC(=C(C=C4)Cl)O
Procedure, shortened: as §1

[7] = compound: C1=CC=C2C(=C1)C3=NNC4=CC=CC(=C43)C2=O
Procedure, shortened: as §1

[8] = compound: C1CCN(C1)C(=O)NC2=CC=CC(=C2)NC3=NC=C(C(=N3)NCCC4=CN=CN4)Br
Procedure, shortened: as §1

[9] = compound: C1CN(CCC1(CC2=CC=C(C=C2)Cl)N)C3=NC=NC4=C3C=CN4
Procedure, shortened: as §1

IRAK-1-4 Inhibitor I = compound: C1COCCN1CCN2C3=CC=CC=C3N=C2NC(=O)C4=CC(=CC=C4)[N+](=O)[O-] [IRAK-1-4 Inhibitor I]
Procedure, shortened: as §1

ibrutinib = compound: C=CC(=O)N1CCC[C@@H](n2nc(-c3ccc(Oc4ccccc4)cc3)c3c(N)ncnc32)C1 [ibrutinib]
Procedure, shortened: as §1

[10] = compound: CC(=O)c1cnc2ccc(-c3cc(Cl)c(O)c(Cl)c3)nc2c1N[C@H]1CC[C@H](CN(C)C)CC1
Procedure, shortened: as §1

ralimetinib = compound: CC(C)(C)Cn1c(N)nc2ccc(-c3[nH]c(C(C)(C)C)nc3-c3ccc(F)cc3)nc21 [ralimetinib]
Procedure, shortened: as §1

[11] = compound: CC(C)(O)CC(=O)NCCn1ccc2ncnc(Nc3ccc(Oc4cccc(C(F)(F)F)c4)c(Cl)c3)c21
Procedure, shortened: as §1

[12] = compound: CC(C)C1=C2N=C(C=C(N2N=C1)NCC3=CC=CC=C3)NCCCCCCN
Procedure, shortened: as §1

[13] = compound: CC(C)C[C@@H](C=O)NC(=O)[C@H](CC(C)C)NC(=O)[C@H](CC(C)C)NC(=O)OCc1ccccc1
Procedure, shortened: as §1

pinometostat = compound: CC(C)N(C[C@H]1O[C@@H](n2cnc3c(N)ncnc32)[C@H](O)[C@@H]1O)[C@H]1C[C@@H](CCc2nc3cc(C(C)(C)C)ccc3[nH]2)C1 [pinometostat]
Procedure, shortened: as §1

[14] = compound: CC1=C(C2=C(C=C1)C(=O)C3=CC=CC=C3N2CCCN)C
Procedure, shortened: as §1

[15] = compound: CC1=C(C(CC(=O)N1)C2=CC=C(C=C2)C(F)(F)F)C(=O)NC3=C(C=C4C(=C3)C=NN4)F
Procedure, shortened: as §1

Target | log2 fold change (erlotinib) | log2 fold change [1] | log2 fold change [2] | log2 fold change [3] | log2 fold change [4] | log2 fold change [5] | log2 fold change [6] | log2 fold change [7] | log2 fold change [8] | log2 fold change [9] | log2 fold change (IRAK-1-4 Inhibitor I) | log2 fold change (ibrutinib) | log2 fold change [10] | log2 fold change (ralimetinib) | log2 fold change [11] | log2 fold change [12] | log2 fold change [13] | log2 fold change (pinometostat) | log2 fold change [14] | log2 fold change [15]
GATA1 (UniProt P15976) | inactive: 0.05 | inactive: 0.024 | inactive: -0.021 | inactive: -0.015 | inactive: 0.032 | inactive: 0.028 | inactive: -0.021 | inactive: -0.083 | inactive: 0.031 | inactive: -0.004 | inactive: 0.038 | inactive: 0.015 | inactive: 0.051 | inactive: 0.041 | inactive: 0.027 | inactive: 0.047 | inactive: 0.088 | inactive: 0.027 | active: -0.368 | 
GBF1 (UniProt Q92538) | inactive: -0.012 | inactive: 0.077 | inactive: -0.049 | inactive: -0.022 | inactive: 0.075 | inactive: 0.028 | inactive: -0.036 | inactive: 0.033 | inactive: -0.026 | inactive: -0.052 | inactive: -0.033 | inactive: -0.049 | inactive: -0.044 | inactive: 0.017 | inactive: -0.05 | inactive: -0.088 | inactive: 0.015 | inactive: 0.115 | inactive: 0.007 | 
FUCA2 (UniProt Q9BTY2) | inactive: -0.001 | inactive: -0.03 | inactive: -0.026 | inactive: 0.013 | inactive: 0.015 | inactive: 0.038 | inactive: 0.033 | inactive: 0.029 | inactive: 0.056 | inactive: 0.017 | inactive: -0.078 | inactive: 0.043 | inactive: -0.056 | inactive: 0.019 | inactive: 0.026 | inactive: -0.09 | inactive: -0.004 | inactive: 0.036 | inactive: -0.12 | 
FUCA1 (UniProt P04066) | inactive: 0.01 | inactive: 0.024 | inactive: 0.049 | inactive: -0.007 | inactive: 0.031 | inactive: -0.004 | inactive: -0.004 | inactive: 0.044 | inactive: 0.012 | inactive: 0.018 | inactive: -0.003 | inactive: 0.018 | inactive: -0.049 | inactive: -0.067 | inactive: 0.056 | inactive: -0.054 | inactive: 0.003 | inactive: -0.03 | inactive: -0.199 | 
GCC2 (UniProt Q8IWJ2) | inactive: -0.062 | inactive: 0 | inactive: -0.155 | inactive: -0.017 | inactive: -0.076 | inactive: 0.034 | inactive: -0.032 | inactive: -0.021 | inactive: -0.054 | inactive: -0.154 | inactive: -0.046 | inactive: -0.023 | inactive: 0.105 | inactive: 0.131 | inactive: 0 | inactive: -0.075 | inactive: 0.111 | inactive: 0.198 | inactive: -0.091 | 
GABARAPL2 (UniProt P60520) | inactive: 0.065 | inactive: 0.013 | inactive: 0.021 | inactive: -0.02 | inactive: 0.072 | inactive: 0.016 | inactive: 0.077 | inactive: 0.008 | inactive: -0.027 | inactive: -0.021 | inactive: 0.107 | inactive: -0.018 | inactive: -0.076 | inactive: 0.008 | inactive: -0.028 | active: -0.269 | inactive: -0.007 | inactive: -0.103 | inactive: -0.015 | 
GALNT12 (UniProt Q8IXK2) | inactive: -0.037 | inactive: 0.03 | inactive: -0.032 | inactive: 0.025 | inactive: -0.005 | inactive: 0.011 | inactive: -0.039 | inactive: -0.023 | inactive: -0.035 | inactive: -0.104 | inactive: 0.046 | inactive: 0.077 | inactive: -0.074 | inactive: 0.002 | inactive: 0.005 | inactive: -0.112 | inactive: 0.045 | inactive: 0.023 | inactive: -0.254 | 
GDPD1 (UniProt Q8N9F7) | inactive: 0.077 | inactive: 0.024 | inactive: -0.061 | inactive: -0.018 | inactive: -0.015 | inactive: 0.01 | inactive: 0.048 | inactive: -0.018 | inactive: -0.037 | inactive: 0.024 | inactive: 0.02 | inactive: -0.03 | inactive: 0.044 | inactive: 0.066 | inactive: -0.03 | inactive: 0.04 | inactive: 0.03 | inactive: -0.027 | inactive: -0.015 | 
GBE1 (UniProt Q04446) | inactive: 0.008 | inactive: 0.135 | inactive: 0.037 | inactive: -0.057 | inactive: 0.158 | inactive: -0.019 | inactive: -0.058 | inactive: -0.03 | inactive: -0.061 | inactive: -0.108 | inactive: -0.241 | inactive: -0.026 | inactive: -0.102 | inactive: 0.051 | inactive: -0.074 | inactive: -0.23 | inactive: 0.027 | inactive: 0.186 | inactive: 0.04 | 
GCDH (UniProt Q92947) | inactive: 0.016 | inactive: -0.078 | inactive: 0.045 | active: -0.273 | inactive: 0.081 | inactive: -0.011 | inactive: 0.082 | inactive: 0.048 | inactive: -0.011 | inactive: 0.039 | inactive: 0.018 | inactive: 0.025 | inactive: -0.092 | inactive: 0.007 | inactive: -0.09 | inactive: 0.05 | inactive: 0.003 | inactive: -0.053 | inactive: 0.055 | 
GDI1 (UniProt P31150) | inactive: -0.009 | inactive: 0.025 | inactive: 0.03 | inactive: 0.014 | inactive: 0.007 | inactive: 0.007 | inactive: -0.021 | inactive: -0.001 | inactive: 0.015 | inactive: 0.008 | inactive: 0.034 | inactive: 0.018 | inactive: -0.027 | inactive: -0.057 | inactive: 0.009 | inactive: 0.04 | inactive: -0.012 | inactive: -0.008 | inactive: 0.011 | 
FYB1 isoform 3 (UniProt O15117) | inactive: 0.019 | inactive: 0.032 | inactive: -0.02 | inactive: -0.01 | inactive: 0.057 | inactive: 0.006 | inactive: 0.014 | inactive: -0.08 | inactive: -0.041 | inactive: 0 | inactive: 0.009 | inactive: -0.012 | inactive: -0.193 | inactive: 0.308 | inactive: 0.06 | inactive: -0.069 | inactive: 0.226 | inactive: 0.002 | inactive: 0.129 | 
GEMIN6 (UniProt Q8WXD5) | inactive: -0.002 | inactive: 0.02 | inactive: -0.042 | inactive: 0.027 | inactive: -0.022 | inactive: 0.065 | inactive: 0.125 | inactive: -0.012 | inactive: -0.002 | inactive: -0.045 | inactive: 0.035 | inactive: 0.021 | inactive: 0.016 | inactive: 0.188 | inactive: -0.03 | inactive: -0.012 | inactive: -0.226 | inactive: 0.046 | inactive: 0.03 | 
GDE1 (UniProt Q9NZC3) | inactive: 0.014 | inactive: 0.065 | inactive: 0.055 | inactive: 0.019 | inactive: -0.047 | inactive: 0.05 | inactive: -0.029 | inactive: -0.023 | inactive: 0.003 | inactive: 0.13 | inactive: -0.052 | inactive: 0.031 | inactive: -0.009 | inactive: 0.02 | inactive: -0.033 | inactive: 0.067 | inactive: 0.049 | inactive: 0.054 | inactive: 0.266 | 
GALNT4 (UniProt Q8N4A0) | inactive: 0.077 | inactive: 0.062 | inactive: 0.075 | inactive: 0.026 | inactive: 0.086 | inactive: 0.044 | inactive: -0.012 | inactive: 0.008 | inactive: 0.006 | inactive: 0.005 | inactive: 0.038 | inactive: 0.011 | inactive: -0.061 | inactive: -0.003 | active: -0.41 | inactive: -0.041 | inactive: -0.002 | inactive: 0.014 | inactive: 0.072 | 
GCLC (UniProt P48506) | inactive: 0.031 | inactive: 0.037 | inactive: 0.057 | inactive: 0.033 | inactive: 0.017 | inactive: -0.031 | inactive: -0.025 | inactive: -0.003 | inactive: 0.035 | inactive: 0.05 | inactive: 0.01 | inactive: 0.002 | inactive: -0.024 | inactive: -0.06 | inactive: -0.052 | inactive: -0.038 | inactive: 0.025 | inactive: -0.001 | inactive: -0.024 | inactive: 0
FOXK1 (UniProt P85037) | inactive: 0.113 | inactive: 0 | inactive: 0.054 | inactive: -0.307 | inactive: 0.425 | inactive: 0.355 | inactive: -0.075 | inactive: 0.61 | inactive: 0.394 | inactive: 0.352 | inactive: 0.046 | inactive: 0.121 | active: -1.03 | inactive: -0.027 | inactive: 0.015 | inactive: 0.111 | inactive: 0.052 | inactive: -0.002 | inactive: 0.154 | 

Two entries drawn at random from those above, as already listed:
Target | log2 fold change (erlotinib) | log2 fold change [1] | log2 fold change [2] | log2 fold change [3] | log2 fold change [4] | log2 fold change [5] | log2 fold change [6] | log2 fold change [7] | log2 fold change [8] | log2 fold change [9] | log2 fold change (IRAK-1-4 Inhibitor I) | log2 fold change (ibrutinib) | log2 fold change [10] | log2 fold change (ralimetinib) | log2 fold change [11] | log2 fold change [12] | log2 fold change [13] | log2 fold change (pinometostat) | log2 fold change [14] | log2 fold change [15]
GCC2 (UniProt Q8IWJ2) | inactive: -0.062 | inactive: 0 | inactive: -0.155 | inactive: -0.017 | inactive: -0.076 | inactive: 0.034 | inactive: -0.032 | inactive: -0.021 | inactive: -0.054 | inactive: -0.154 | inactive: -0.046 | inactive: -0.023 | inactive: 0.105 | inactive: 0.131 | inactive: 0 | inactive: -0.075 | inactive: 0.111 | inactive: 0.198 | inactive: -0.091 | 
FUCA1 (UniProt P04066) | inactive: 0.01 | inactive: 0.024 | inactive: 0.049 | inactive: -0.007 | inactive: 0.031 | inactive: -0.004 | inactive: -0.004 | inactive: 0.044 | inactive: 0.012 | inactive: 0.018 | inactive: -0.003 | inactive: 0.018 | inactive: -0.049 | inactive: -0.067 | inactive: 0.056 | inactive: -0.054 | inactive: 0.003 | inactive: -0.03 | inactive: -0.199 | 
